Article PMC11377567
These are yes or no findings as the source states them, for the method shown. Binding seen in cells or lysates may run through a third protein. Some results given as binding are weak or reduced against the parent protein; the word gives no strength.

Sequences of proteins named here, by UniProt entry; tags and fusion partners are left off.
UniProt P08050: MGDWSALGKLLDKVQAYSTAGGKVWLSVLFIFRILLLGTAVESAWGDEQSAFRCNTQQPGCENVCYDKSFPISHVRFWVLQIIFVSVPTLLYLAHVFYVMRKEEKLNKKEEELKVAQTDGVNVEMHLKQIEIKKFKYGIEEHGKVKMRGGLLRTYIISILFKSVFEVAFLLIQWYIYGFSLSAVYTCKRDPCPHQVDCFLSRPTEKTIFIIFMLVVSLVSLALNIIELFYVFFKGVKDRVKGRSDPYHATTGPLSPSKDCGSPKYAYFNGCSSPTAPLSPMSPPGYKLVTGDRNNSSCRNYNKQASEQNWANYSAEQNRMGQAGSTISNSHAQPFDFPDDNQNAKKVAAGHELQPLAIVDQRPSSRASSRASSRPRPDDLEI
UniProt P17931: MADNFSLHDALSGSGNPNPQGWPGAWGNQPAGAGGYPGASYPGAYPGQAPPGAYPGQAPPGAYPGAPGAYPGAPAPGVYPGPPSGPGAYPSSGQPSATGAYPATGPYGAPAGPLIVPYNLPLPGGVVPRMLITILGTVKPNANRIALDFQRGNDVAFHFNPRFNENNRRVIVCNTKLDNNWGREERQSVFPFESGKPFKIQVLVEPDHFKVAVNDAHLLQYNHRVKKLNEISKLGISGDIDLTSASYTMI

Target: Connexin43 (rat) (UniProt P08050)
Assay: co-IP; immunoprecipitation with goat anti-Cx43 (0.5 ug) from 300 ug RIPA lysate of HEK293^Cx43+ cells, overnight at 4 °C, Protein G Sepharose, Western blot; cells untreated or treated with LLOMe (10 or 60 min), for Arp2 also with cytochalasin D in the last 30 min

Substance: mCherry-Galectin3 (from UniProt P17931 1-250)
- binding: binds
